Experimental data taken from PMC9935853.
No constants are given. Whether binding was seen depends on the method and setting. Some entries that bind do so weakly or less than the wild type. For some assays here: Where a sequence is shown, tags or fusion partners need not be part of it.

T1: S. pombe cytochrome c oxidase subunit Cox5 with a C-terminal twin-strep tag (S. pombe) (UniProt O74988)
T1 sequence: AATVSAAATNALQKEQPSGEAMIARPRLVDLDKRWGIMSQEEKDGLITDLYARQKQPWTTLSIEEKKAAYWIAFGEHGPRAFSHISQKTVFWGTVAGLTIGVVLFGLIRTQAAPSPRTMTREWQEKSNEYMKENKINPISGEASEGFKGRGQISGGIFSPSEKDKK

T2: S. pombe cytochrome c oxidase subunit Cox3 (S. pombe) (UniProt P14575)
T2 sequence: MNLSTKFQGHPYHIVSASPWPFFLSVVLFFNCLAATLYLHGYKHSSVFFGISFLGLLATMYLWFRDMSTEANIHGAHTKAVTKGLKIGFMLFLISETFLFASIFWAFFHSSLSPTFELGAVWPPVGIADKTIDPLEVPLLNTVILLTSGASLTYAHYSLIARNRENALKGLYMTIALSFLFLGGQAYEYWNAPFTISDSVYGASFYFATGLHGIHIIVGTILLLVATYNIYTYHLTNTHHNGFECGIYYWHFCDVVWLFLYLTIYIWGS

B1: S. pombe cytochrome c oxidase subunit Cox7 (protein, UniProt G2TRP5 1-59)
chain: MKNTIVQQQRFLQSIHKPTYLQRPGSFALVYPYYAVMAGLGLYSLYASGRVIFGKKDAF
B2: S. pombe cytochrome c oxidase subunit Cox12 (protein, UniProt O94581 1-86)
chain: MSEQEDQEAPKQFTFGTVGFDARFPNTNQTKHCFQSYIDYFRCIKAKGEDFVPCKQFWHAYQSLCPMEWVERWDEQRENGTFPAPI
B3: S. pombe cytochrome c oxidase subunit Cox13 (protein, UniProt O74471 32-130)
chain: SNEAKVNWLEEVQAEEEHAKRSSEFWKKVTYYIGGPALILASANAYYIYCKHQEHAKHVEDTDPGYSFENLRFKKYPWGDGSKTLFWNDKVNHLKKDDE
B4: S. pombe cytochrome c oxidase subunit Cox2 (protein, UniProt P21534 1-248)
chain: MLFFNSILNDAPSSWALYFQDGASPSYLGITHLNDYLMFYLTFIFIGVIYAICKAVIEYNYNSHPIAAKYTTHGSIVEFIWTLIPALILILVALPSFKLLYLLDEVQKPSMTVKAIGRQWFWSYELNDFVTNENEPVSFDSYMVPEEDLEEGSLRQLEVDNRLVLPIDTRIRLILTSGDVIHSWAVPSLGIKCDCIPGRLNQVSLSIDREGLFYGQCSELCGVLHSSMPIVVQGVSLEDFLAWLEENS
B5: S. pombe cytochrome c oxidase subunit Cox3 (protein, UniProt P14575 1-269)
chain: T2 sequence
B6: S. pombe cytochrome c oxidase subunit Cox4 (protein, UniProt P79010 34-164)
chain: NEQNVVKAAAQELANAKEPSDLIGPGGRDGEVPTDLEQATGLERYELLSELSGRDAFDMKPLDASRKGTLTDPIMVTSLDPYRHIGCTGSPSGSHNLIWMTVYKDKLRRCPECGSVYKLKFMGDPNAEHSH
B7: respiratory supercomplex factor 2 (Rcf2) of S. pombe (protein, UniProt Q9P3B2 1-242)
chain: MKLSTPEEVKAFNRNTYSALFKGALVGSSLGIAGWLIGNRYSAGFRRLPFSLKSWLVIGSGSGASIIFADKAGLKFEAERYGKFDQIDYSTKGLPWNQRALYYFNEHKWPIILGTWASTMGLSLYAASRNRYDTAPQKLIQARMYAQGVTVVVLLGSVYLSTLANRLEPLEREVLVTDPSNPTKLVAFKQRKERYPGELQWEVLVSQDEERLRKLNLPLREPHGSTGPMSTPTPALNSSRSA

biological target: T1, S. pombe cytochrome c oxidase subunit Cox5 with a C-terminal twin-strep tag (S. pombe); assay: cryo-EM structure; CIV purified through Cox5-2xstrep in GDN (25 mM KH2PO4 pH 8.0, 150 mM KCl, 0.01% GDN), ~4 mg/ml on grids; map at 3.4 Å overall

Binder	binding
B1	binds
SSSHSAPKPGSTIPFYINKKPLPTLLYFGTFGVIFSIPFIVVKYHNRNL (peptide, UniProt Q9P4W1 18-66) [S. pombe cytochrome c oxidase subunit Cox8]	binds
B2	binds
B3	binds
B4	binds
B5	binds
B6	binds

biological target: T2, S. pombe cytochrome c oxidase subunit Cox3 (S. pombe); assay: as above

Binder	binding
B7	binds
